PubChem BioAssay AID504804 – Drosophila RNAi Screening Center – 2011
The deposit covers about 19,000 reagents; this is a random part of those with a known target gene and a result. Of all reagents, 47 (0.25%) were called active. 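Signals are raw, not normalised; exact z-scores behind calls not deposited; actives needed confirmation, so some wells reaching 2 SD are inactive.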 Entries without a mark were called inactive. A plus sign joins genes that one reagent is predicted to hit. Reagent sequences are not shown.

Screen: 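Knock-downs shielding fly cells from apoptosis caused by DNA damage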 (primary screen)
System: Drosophila Kc cells
Reagent: long dsRNA against Drosophila genes, 0.5 µg dsRNA per well
Duration: 96 h (48 h knock-down, then 48 h drug)
Conditions: doxorubicin 5 µg/ml for 48 h, added 48 h after dsRNA
Read-out: 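Luminescent ATP counts per replicate, not normalised, reflecting viable cells after 48 h dsRNA knock-down followed by 48 h of 5 µg/ml doxorubicin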
Scale: raw ATP luminescence: higher = more viable cells, protection from doxorubicin
Call rule: 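z-score of 2 or more over plate mean in both duplicates, retained only when retests and separate dsRNAs confirm the protection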

Gene,DRSC id,"raw ATP luminescence, replicate 1","raw ATP luminescence, replicate 2"
Ance-5,DRSC04055,73293,72453
dbr,DRSC00274,1.29e5,1.28e5
Spn28F,DRSC03615,49727,73007
CG6511,DRSC10656,72527,80593
CG17560,DRSC15242,79130,59520
CG11350,DRSC08181,84377,79650
CG17666,DRSC10276,78837,69800
CG5823,DRSC15881,53537,38090
CG11134,DRSC19384,1.59e5,2.09e5
CG34045,DRSC05787,1.06e5,59807
CG5645,DRSC10532,43417,46093
Ugt35E2,DRSC16083,46127,53007
CG10638,DRSC09762,55970,48473
poe,DRSC03593,80670,45707
l(2)37Cb,DRSC02095,1.01e5,88970
Blm + CG14721,DRSC14943,53800,55373

Next part, starting with the last 2 of the part before.
Gene,DRSC id,"raw ATP luminescence, replicate 1","raw ATP luminescence, replicate 2"
l(2)37Cb,DRSC02095,1.01e5,88970
Blm + CG14721,DRSC14943,53800,55373
CG1146,DRSC08189,68870,67383
CG7246,DRSC18422,1.69e5,2.08e5
CG31198,DRSC15891,44163,43250
fd3F + CG42499 (retired record),DRSC18160,34410,46820
fd3F + CG42499 (retired record),DRSC18161,42790,38800
CG3246,DRSC00584,38437,43850
ppk19,DRSC15321,45990,33520
Hesr,DRSC19965,3.50e5,3.22e5
CG42326,DRSC06483,45263,69957
CG42326,DRSC06484,43927,73607
mag,DRSC11787,26473,21650
atlas,DRSC04183,32503,63380
Ac13E,DRSC19325,2.78e5,2.17e5
Sply,DRSC07299,2.26e5,2.61e5
CG5984,DRSC15930,62090,46380
ND-B17,DRSC01981,74623,84020
SpdS,DRSC16408,62213,62677
CG11164,DRSC19392,3.28e5,2.66e5
